Laboratory results from paper PMC12356253.
No constants are given. Whether binding was seen depends on the method and setting. Some binding calls cover weakened binding; strength is not graded here.

Protein sequences, listed by entry. Tags and fused reporters are not part of them. Residues count along the entry.
UniProt Q5VUM1, residues 21-108: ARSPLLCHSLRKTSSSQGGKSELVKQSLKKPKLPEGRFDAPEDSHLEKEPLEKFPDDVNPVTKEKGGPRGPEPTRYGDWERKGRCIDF
UniProt P31040, residues 43-664: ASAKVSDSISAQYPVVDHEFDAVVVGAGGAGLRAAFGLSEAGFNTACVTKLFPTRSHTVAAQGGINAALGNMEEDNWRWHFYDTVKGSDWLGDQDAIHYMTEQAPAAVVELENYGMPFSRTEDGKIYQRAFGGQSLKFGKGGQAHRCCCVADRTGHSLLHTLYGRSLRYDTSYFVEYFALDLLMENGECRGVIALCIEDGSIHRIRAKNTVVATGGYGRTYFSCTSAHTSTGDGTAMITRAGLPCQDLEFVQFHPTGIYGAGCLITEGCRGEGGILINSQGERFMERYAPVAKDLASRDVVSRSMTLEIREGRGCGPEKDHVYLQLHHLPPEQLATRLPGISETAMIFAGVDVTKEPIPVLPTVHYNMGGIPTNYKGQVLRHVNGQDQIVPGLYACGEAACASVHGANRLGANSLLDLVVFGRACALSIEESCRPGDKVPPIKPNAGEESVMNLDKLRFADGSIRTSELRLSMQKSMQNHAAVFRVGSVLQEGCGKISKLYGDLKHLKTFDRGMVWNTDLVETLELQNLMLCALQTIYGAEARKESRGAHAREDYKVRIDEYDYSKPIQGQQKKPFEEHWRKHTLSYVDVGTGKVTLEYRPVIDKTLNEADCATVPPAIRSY

Experiments:
[1] = biological target: SDHAF4 (human (endogenous in HEK293T)) (UniProt Q5VUM1); assay: native gel or EMSA; complexome profiling: mitochondria of SILAC-labelled control HEK293T and UQCRC1^KO cells solubilised in 1% digitonin, 4 to 16% BN-PAGE, lane cut into 60 slices, quantitative MS; co-migration
[2] = biological target: T1, SDHAF2 (human (endogenous in HEK293T)) (UniProt Q9NX18); assay: as above
T1 sequence: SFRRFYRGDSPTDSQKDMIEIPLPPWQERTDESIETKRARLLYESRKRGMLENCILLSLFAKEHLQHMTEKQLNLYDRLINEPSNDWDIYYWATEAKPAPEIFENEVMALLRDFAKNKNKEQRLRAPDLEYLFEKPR

[3] = biological target: T1, SDHAF2 (human (endogenous in HEK293T)); assay: native gel or EMSA; BN-PAGE of isolated mitochondria solubilised in 1% digitonin, immunoblotting; HEK293T control and knockout lines, with or without antimycin A

binding [1]: binds
binding [2]: binds
binding [3]: binds
Substance: SDHA (from UniProt P31040 43-664)
